From patent publication US20020152485A1
These are yes or no findings as the source states them, for the method shown. Some entries that bind do so weakly or less than the wild type. Where a sequence is shown, tags or fusion partners need not be part of it.

Amino acid sequences for entries named in this document (tags omitted). Residues count along the entry.
UniProt P04114, residues 28-4563: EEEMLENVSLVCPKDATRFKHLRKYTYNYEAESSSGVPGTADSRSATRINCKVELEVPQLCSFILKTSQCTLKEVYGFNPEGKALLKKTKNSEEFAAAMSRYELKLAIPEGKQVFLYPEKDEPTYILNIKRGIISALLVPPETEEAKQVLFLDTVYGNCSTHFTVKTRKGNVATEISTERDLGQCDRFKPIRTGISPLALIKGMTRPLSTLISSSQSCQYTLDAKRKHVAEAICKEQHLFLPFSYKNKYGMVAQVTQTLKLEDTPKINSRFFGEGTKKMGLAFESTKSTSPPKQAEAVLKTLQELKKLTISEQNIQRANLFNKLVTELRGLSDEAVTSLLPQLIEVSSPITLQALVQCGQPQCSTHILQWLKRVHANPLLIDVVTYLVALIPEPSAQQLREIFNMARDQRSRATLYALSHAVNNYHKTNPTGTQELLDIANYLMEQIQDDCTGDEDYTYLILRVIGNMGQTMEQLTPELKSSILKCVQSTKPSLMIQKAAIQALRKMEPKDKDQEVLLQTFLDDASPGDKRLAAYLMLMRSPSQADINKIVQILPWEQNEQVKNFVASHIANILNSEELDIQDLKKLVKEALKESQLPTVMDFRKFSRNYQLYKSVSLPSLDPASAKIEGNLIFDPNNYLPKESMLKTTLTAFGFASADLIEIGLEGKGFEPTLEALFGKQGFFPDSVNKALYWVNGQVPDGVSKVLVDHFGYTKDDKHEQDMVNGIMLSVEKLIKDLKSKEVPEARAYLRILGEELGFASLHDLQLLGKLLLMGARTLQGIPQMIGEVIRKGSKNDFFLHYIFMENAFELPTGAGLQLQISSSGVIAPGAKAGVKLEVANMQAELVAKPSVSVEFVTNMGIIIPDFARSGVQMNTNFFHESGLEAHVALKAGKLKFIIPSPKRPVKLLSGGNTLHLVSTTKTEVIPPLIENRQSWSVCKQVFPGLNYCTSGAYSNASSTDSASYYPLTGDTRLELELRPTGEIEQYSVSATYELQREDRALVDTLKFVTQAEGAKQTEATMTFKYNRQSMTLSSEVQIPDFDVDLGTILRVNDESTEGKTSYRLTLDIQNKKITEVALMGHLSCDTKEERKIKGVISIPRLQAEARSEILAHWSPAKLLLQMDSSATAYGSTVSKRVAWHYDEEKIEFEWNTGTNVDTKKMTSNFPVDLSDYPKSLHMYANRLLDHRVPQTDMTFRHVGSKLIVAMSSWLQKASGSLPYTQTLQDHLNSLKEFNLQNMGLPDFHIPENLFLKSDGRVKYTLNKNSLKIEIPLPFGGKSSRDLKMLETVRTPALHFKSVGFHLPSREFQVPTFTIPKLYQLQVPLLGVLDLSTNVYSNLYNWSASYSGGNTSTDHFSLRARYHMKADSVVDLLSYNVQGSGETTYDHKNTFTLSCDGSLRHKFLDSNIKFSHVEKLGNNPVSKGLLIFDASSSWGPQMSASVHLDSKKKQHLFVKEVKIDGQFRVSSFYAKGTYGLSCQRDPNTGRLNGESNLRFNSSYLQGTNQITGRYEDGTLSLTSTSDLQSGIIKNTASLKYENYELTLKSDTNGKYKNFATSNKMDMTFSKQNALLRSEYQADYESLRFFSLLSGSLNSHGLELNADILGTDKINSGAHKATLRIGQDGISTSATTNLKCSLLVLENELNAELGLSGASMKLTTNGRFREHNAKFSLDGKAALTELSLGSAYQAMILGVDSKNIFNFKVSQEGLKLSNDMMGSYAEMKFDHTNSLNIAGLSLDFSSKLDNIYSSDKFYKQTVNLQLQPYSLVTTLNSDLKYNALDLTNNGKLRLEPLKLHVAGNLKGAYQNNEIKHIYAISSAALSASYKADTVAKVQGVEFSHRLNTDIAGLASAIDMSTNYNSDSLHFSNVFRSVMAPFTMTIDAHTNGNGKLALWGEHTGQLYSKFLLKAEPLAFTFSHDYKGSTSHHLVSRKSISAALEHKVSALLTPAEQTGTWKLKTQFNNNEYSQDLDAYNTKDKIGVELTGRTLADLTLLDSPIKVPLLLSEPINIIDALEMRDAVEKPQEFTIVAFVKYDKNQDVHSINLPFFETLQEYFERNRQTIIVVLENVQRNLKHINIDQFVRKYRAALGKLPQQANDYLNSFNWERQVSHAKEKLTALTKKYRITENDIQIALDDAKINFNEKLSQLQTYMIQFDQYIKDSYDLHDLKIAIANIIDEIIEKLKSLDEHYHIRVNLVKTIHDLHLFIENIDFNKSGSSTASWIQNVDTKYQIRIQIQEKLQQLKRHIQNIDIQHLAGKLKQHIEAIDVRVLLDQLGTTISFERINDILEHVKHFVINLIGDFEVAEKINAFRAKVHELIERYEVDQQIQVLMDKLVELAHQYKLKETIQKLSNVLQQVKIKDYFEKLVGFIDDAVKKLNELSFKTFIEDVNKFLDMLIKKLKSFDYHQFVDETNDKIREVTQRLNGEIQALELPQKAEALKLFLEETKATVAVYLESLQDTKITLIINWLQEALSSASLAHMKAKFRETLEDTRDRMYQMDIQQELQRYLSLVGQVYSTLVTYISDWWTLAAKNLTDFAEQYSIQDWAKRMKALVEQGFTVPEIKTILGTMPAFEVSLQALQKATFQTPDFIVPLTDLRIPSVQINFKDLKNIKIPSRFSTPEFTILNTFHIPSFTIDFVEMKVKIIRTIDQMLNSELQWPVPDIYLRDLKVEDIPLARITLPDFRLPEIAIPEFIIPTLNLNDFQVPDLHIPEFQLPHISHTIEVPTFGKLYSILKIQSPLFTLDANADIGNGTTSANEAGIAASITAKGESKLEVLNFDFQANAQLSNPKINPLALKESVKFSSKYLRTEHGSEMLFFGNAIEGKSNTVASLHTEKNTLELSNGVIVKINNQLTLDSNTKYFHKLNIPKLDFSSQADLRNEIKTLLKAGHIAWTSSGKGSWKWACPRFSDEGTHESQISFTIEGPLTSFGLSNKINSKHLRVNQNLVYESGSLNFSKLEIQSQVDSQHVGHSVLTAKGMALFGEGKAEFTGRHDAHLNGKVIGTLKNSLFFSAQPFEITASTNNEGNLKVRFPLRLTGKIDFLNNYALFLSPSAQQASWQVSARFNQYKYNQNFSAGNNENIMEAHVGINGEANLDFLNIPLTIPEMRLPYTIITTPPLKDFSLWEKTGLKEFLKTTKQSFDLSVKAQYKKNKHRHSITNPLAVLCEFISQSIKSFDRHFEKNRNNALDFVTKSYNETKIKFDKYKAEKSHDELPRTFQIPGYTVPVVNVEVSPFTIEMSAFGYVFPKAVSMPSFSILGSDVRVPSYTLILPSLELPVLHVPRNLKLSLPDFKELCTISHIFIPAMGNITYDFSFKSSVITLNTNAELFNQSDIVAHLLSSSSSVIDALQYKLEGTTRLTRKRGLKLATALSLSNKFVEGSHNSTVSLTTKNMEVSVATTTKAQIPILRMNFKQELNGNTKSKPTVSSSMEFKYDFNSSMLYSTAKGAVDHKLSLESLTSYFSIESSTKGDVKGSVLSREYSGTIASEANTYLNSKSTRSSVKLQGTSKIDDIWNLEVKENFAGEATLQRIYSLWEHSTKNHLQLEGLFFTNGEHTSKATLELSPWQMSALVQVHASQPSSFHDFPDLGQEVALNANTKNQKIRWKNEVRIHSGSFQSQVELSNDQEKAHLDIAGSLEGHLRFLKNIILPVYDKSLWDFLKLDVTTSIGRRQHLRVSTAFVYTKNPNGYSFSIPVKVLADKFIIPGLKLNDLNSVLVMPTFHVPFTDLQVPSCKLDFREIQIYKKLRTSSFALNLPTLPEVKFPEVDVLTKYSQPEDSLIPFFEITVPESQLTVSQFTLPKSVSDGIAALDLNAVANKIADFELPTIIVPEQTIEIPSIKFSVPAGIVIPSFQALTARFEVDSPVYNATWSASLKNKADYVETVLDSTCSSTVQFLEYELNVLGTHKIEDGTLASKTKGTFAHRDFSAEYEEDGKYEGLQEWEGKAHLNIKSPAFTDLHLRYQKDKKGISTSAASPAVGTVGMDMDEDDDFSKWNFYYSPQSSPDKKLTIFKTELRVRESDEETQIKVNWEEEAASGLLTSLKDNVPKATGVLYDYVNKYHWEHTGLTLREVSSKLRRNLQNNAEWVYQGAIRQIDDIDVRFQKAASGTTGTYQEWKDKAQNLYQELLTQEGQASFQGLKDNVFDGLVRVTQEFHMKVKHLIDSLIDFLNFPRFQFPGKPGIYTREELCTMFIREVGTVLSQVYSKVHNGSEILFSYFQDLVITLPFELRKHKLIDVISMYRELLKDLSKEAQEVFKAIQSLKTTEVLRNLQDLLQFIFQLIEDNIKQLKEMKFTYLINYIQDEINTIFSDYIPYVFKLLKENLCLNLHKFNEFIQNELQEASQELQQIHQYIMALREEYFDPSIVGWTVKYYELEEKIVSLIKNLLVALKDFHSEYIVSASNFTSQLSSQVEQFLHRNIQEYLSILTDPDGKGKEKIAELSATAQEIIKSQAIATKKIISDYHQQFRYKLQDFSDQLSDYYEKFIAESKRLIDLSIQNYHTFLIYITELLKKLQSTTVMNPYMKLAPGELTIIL

Assays:
[1] = target: native human low density lipoprotein (LDL) (human) (UniProt P04114); test: ACE competition: fixed cold LDL and radiolabeled clone 26 LBP-2, increasing cold clone 26 LBP-2
[2] = target: native human low density lipoprotein (LDL) (human) (UniProt P04114); test: ACE self-competition: fixed cold LDL and radiolabeled LBP-2, increasing cold LBP-2
[3] = target: native human low density lipoprotein (LDL) (human) (UniProt P04114); test: affinity coelectrophoresis (ACE): 125I-labeled clone 26 LBP-2 run through LDL cast in agarose
[4] = target: native human low density lipoprotein (LDL) (human) (UniProt P04114); test: affinity coelectrophoresis (ACE): 125I-LBP-2 run through LDL cast in agarose
[5] = target: native human low density lipoprotein (LDL) (human) (UniProt P04114); test: plaque-lift expression screen of a rabbit aorta cDNA phage library; membranes incubated with native human LDL (4 ug/ml), detected with sheep anti-human LDL antibodies; phage-expressed protein

binding [1]: binds | binding [2]: binds | binding [3]: binds | binding [4]: binds | binding [5]: binds
B1: recombinant rabbit LBP-2 clone 26 (6-His tag) (protein, not shown: small tags and cut ends)
chain: PPPPQQPQPPPEGGAARAGGPARPVSLREVVRYLGGSSGAGGRLTRGRVQGLLEEEAAARGRLERTRLGALALPRGDRPGRAPPAASARAARNKRAGEERVLEKEEEEEEEEDDEDDDDDVVSEGSEVPESDRPAGAQHHQLNGGERGPQTAKERAKEWSLCGPHPGQEEGRGPAAGSGTRQVFSMAALSKEGGSASSTTGPDSPSPVPLPPGKPALPGADGTPFGCPAGRKEKPADPVEWTVMDVVEYFTEAGFPEQATAFQEQEIDGKSLLLMQRTDVLTGLSIRLGPALKIYEHHIKVLQQGHFEDDDPEGFLG
modifications: 125I-iodinated (Iodobeads) where used as the radiolabeled species in ACE assays
